# Some of the results follow. The main result of the screen is listed elsewhere. These columns were measured beside it and carry no call. Compounds called inactive in the main read-out are mostly missing here. The note in brackets gives the kind of curve behind each potency; many fits are weak.
# Test: qHTS Assay for Identifying the Cell-Membrane Permeable IMPase Inhibitors
# Settings: CHO-M1 cells, IP1 accumulation, HTRF TR-FRET ratio; measured here: donor channel 620 nm AC50
row,SMILES,AC50
1,O=c1oc2c3c4c(cc2c2c1CCC2)OCCN4CCC3,"0.00501 µM [falling, full curve, poor fit]"
2,Cc1ccc(C(=O)OC2CCS(=O)(=O)c3sccc32)cc1 (stereo not drawn),"0.0126 µM [rising, full curve, poor fit]"
3,Fc1ccc(CNC(=S)Nc2ccc(Cl)cc2Cl)cc1,"5.01 µM [falling, full curve, poor fit]"
4,COc1ccc(/C=N\NC(=O)C2=NNC(=O)C2C)cc1 (stereo not drawn),"10 µM [falling, single point]"
5,O=C(CCC1CC(=O)Nc2ccccc21)NCc1ccc(F)cc1 (stereo not drawn),"0.0251 µM [rising, full curve]"
6,O=c1c([N+](=O)[O-])c(NC2CCCCC2)c2ccccc2n1-c1ccccc1,"0.01 µM [falling, full curve, poor fit]"
7,COc1ccc(S(=O)(=O)N2Cc3ccccc3CC2C(=O)Nc2cccc(C)c2)cc1OC (stereo not drawn),"0.282 µM [falling, full curve]"
8,Cc1ccc(NC2SC(=O)N(CC(=O)O)C2=O)cc1 (stereo not drawn),"0.501 µM [falling, full curve, poor fit]"
9,COc1ccc(-n2nnnc2SCC(=O)c2ccc3c(c2)OCCO3)cc1,"0.00501 µM [falling, full curve, poor fit]"
10,O=C(O)C1CC=CCC1C(=O)Nc1cccc(Cl)c1Cl (stereo not drawn),"1.26 µM [rising, partial curve, poor fit]"
11,Nc1c(S(=O)(=O)c2cccs2)c2nc3ccccc3nc2n1Cc1cccs1,"31.6 µM [rising, single point]"
12,O=C(Nc1ccc2c(c1)OCO2)C1CCN(c2ccc(S(=O)(=O)N3CCOCC3)cc2)CC1,"6.31 µM [falling, single point]"
13,Cc1cc(NC(=O)C2C3C(=O)N(Cc4ccc(Cl)cc4)C(C(=O)NCc4ccccc4)C34C=CC2(C)O4)no1 (stereo not drawn),"3.98 µM [falling, full curve]"
14,CC(=O)Nc1c(C(=O)c2ccccc2)oc2ccccc12,"0.1 µM [falling, full curve, poor fit]"
15,CCOC(=O)CCC(=O)N1CCNC(=O)C1,"0.0891 µM [falling, full curve, poor fit]"
16,O=C(Nc1cnn(Cc2ccc(Cl)c(Cl)c2)c1)C12CC3CC(CC(C3)C1)C2,"0.794 µM [falling, full curve, poor fit]"
17,O=C(c1ccc([N+](=O)[O-])cc1)N(C1=NCCCCS1)c1ccccc1,"6.31 µM [falling, single point]"
18,O=C(N1CCOCC1)N1CCCN(C(=O)N2CCOCC2)CC1,"0.0251 µM [rising, full curve]"
19,COc1cc([N+](=O)[O-])ccc1NC(=O)C[n+]1cccc(C)c1,"0.501 µM [falling, full curve, poor fit]"
20,CN(C)c1ccc(/C=C/c2ccc3ccccc3[n+]2C)cc1,"15.8 µM [falling, partial curve]"
21,CC(C)=CCCC1=CCC(/C(C)=N/NC(N)=O)CC1 (stereo not drawn),"3.98 µM [rising, full curve, poor fit]"
22,Cc1ccc(C(=O)C2=C(O)C(=O)N(c3ncccn3)C2c2cccc(Cl)c2)o1 (stereo not drawn),"10 µM [rising, partial curve]"
23,Cc1nnsc1C(=O)Nc1cccc(Cl)c1Cl,"0.2 µM [rising, single point]"

# Rewritten with bars between the fields: 14 of the compounds above.
row | SMILES | AC50
1 | O=c1oc2c3c4c(cc2c2c1CCC2)OCCN4CCC3 | 0.00501 µM [falling, full curve, poor fit]
5 | O=C(CCC1CC(=O)Nc2ccccc21)NCc1ccc(F)cc1 (stereo not drawn) | 0.0251 µM [rising, full curve]
8 | Cc1ccc(NC2SC(=O)N(CC(=O)O)C2=O)cc1 (stereo not drawn) | 0.501 µM [falling, full curve, poor fit]
10 | O=C(O)C1CC=CCC1C(=O)Nc1cccc(Cl)c1Cl (stereo not drawn) | 1.26 µM [rising, partial curve, poor fit]
11 | Nc1c(S(=O)(=O)c2cccs2)c2nc3ccccc3nc2n1Cc1cccs1 | 31.6 µM [rising, single point]
12 | O=C(Nc1ccc2c(c1)OCO2)C1CCN(c2ccc(S(=O)(=O)N3CCOCC3)cc2)CC1 | 6.31 µM [falling, single point]
13 | Cc1cc(NC(=O)C2C3C(=O)N(Cc4ccc(Cl)cc4)C(C(=O)NCc4ccccc4)C34C=CC2(C)O4)no1 (stereo not drawn) | 3.98 µM [falling, full curve]
14 | CC(=O)Nc1c(C(=O)c2ccccc2)oc2ccccc12 | 0.1 µM [falling, full curve, poor fit]
15 | CCOC(=O)CCC(=O)N1CCNC(=O)C1 | 0.0891 µM [falling, full curve, poor fit]
16 | O=C(Nc1cnn(Cc2ccc(Cl)c(Cl)c2)c1)C12CC3CC(CC(C3)C1)C2 | 0.794 µM [falling, full curve, poor fit]
17 | O=C(c1ccc([N+](=O)[O-])cc1)N(C1=NCCCCS1)c1ccccc1 | 6.31 µM [falling, single point]
18 | O=C(N1CCOCC1)N1CCCN(C(=O)N2CCOCC2)CC1 | 0.0251 µM [rising, full curve]
22 | Cc1ccc(C(=O)C2=C(O)C(=O)N(c3ncccn3)C2c2cccc(Cl)c2)o1 (stereo not drawn) | 10 µM [rising, partial curve]
23 | Cc1nnsc1C(=O)Nc1cccc(Cl)c1Cl | 0.2 µM [rising, single point]

# (continued)

row,SMILES,AC50
1,COCCN(CCOC)C(=O)c1cc2c(=O)n3ccccc3nc2s1,"5.01 µM [rising, single point]"
2,CC(=O)Nc1ccc(S(=O)(=O)N=S(C)C)cc1,"0.316 µM [falling, partial curve]"
3,CCc1cc2cc3c(cc2nc1SCC(=O)Nc1nccs1)OCO3,"25.1 µM [rising, partial curve]"
4,Cc1ccc(Cn2c(=O)n(Cc3ccco3)c(=O)c3ccccc32)cc1,"5.01 µM [falling, single point]"
5,CCOc1ccc(C(=O)N2CCC(C(=O)c3ccc4c(c3)OCCO4)CC2)cc1,"35.5 µM [rising, single point]"
6,CCCc1nnc(NC(=O)CCCC(=O)O)s1,"3.16 µM [rising, partial curve]"
7,Cc1ccc(NC(=O)C2CC(=O)NC(N3CCc4ccccc43)=N2)cc1 (stereo not drawn),"0.00501 µM [falling, full curve, poor fit]"
8,CCn1ccc2cc(OC)ccc2c1=S,"15.8 µM [rising, single point]"
9,Cc1c(CCC(=O)O)c(=O)oc2cc3occ(-c4ccc(F)cc4)c3cc12,"2.82 µM [falling, single point]"
10,COc1cccc(C2C(C(=O)c3cc4ccccc4o3)=C(O)C(=O)N2c2cc(C)on2)c1OC (stereo not drawn),"12.6 µM [rising, partial curve]"
11,O=C1CCC(=O)N1CC(=O)N1c2ccccc2Sc2ccccc21,"0.126 µM [falling, full curve, poor fit]"
12,Cc1ccc(C(=O)Nc2ccc3c(c2)CCC3)o1,"11.2 µM [falling, partial curve, poor fit]"
13,C=CCN1C2CCCC1CC(NC(=O)Nc1cccc(C(C)=O)c1)C2 (stereo not drawn),"31.6 µM [falling, single point]"
14,CC(=O)c1ccccc1OCCCN1CCCCC1,"0.251 µM [rising, single point]"
15,COc1cc2c(cc1OC)-c1cc(OCCN3CCOCC3)nc(=O)n1CC2,"3.98 µM [rising, single point]"
16,COc1cc(/C=N/NC(=O)c2ccc(=O)[nH]n2)ccc1O,"14.1 µM [falling, partial curve]"
17,CC(C)CNC(=O)NC(=O)COc1c(F)c(F)cc(F)c1F,"3.16 µM [rising, full curve]"
18,O=C(COc1ccccc1)Nc1ccccc1N1CCN(c2ccc(F)cc2)CC1,"5.01 µM [falling, single point]"
19,O=C(NCCCN1CCOCC1)c1ccc(CNS(=O)(=O)c2ccc(F)cc2)cc1,"12.6 µM [falling, partial curve, poor fit]"
20,Cn1c(=O)c(=O)n(C)c2cc(S(=O)(=O)CCC(=O)N3CCOCC3)ccc21,"2.82 µM [falling, partial curve]"
21,COc1cccc(Nc2nnc(SCC(=O)N(CC(C)C)CC(C)C)s2)c1,"6.31 µM [falling, single point]"
22,COc1cc(-c2nc(-c3ccncc3)no2)cc(OC)c1OC,"31.6 µM [rising, single point]"
23,Cc1ccc2nc(C(O)C(O)c3nc4ccc(C)cc4[nH]3)[nH]c2c1 (stereo not drawn),"3.16 µM [falling, single point]"

row,SMILES,AC50
1,Cc1nn(CC(O)Cn2c3c(c4ccccc42)CCN(C)C3=O)c(C)c1Br (stereo not drawn),"0.0282 µM [falling, full curve, poor fit]"
2,Cc1cc(NC(=O)c2ccccc2Cl)c(C(C)C)cc1O,"6.31 µM [rising, single point]"
3,CC(=O)c1ccc2cccc3c2c1N=CN3C,"20 µM [falling, partial curve, poor fit]"
4,COC(=O)c1ccccc1NC(=O)COc1ccc(S(=O)(=O)N2CCCC2)cc1C,"31.6 µM [rising, single point]"
5,CCOc1nc(C)ccc1-c1noc(-c2ccncc2)n1,"0.501 µM [falling, full curve]"
6,CCOC(=O)c1c2n(c3ccc(O)cc13)CCC2,"11.2 µM [falling, single point]"
7,Cc1ccc(N/C=C/C(=O)c2sc(-c3ccccc3)nc2C)cc1,"0.0316 µM [rising, full curve, poor fit]"
8,CCOc1cccc2cc(C(=O)Nc3cc(C)on3)c(=O)oc12,"10 µM [rising, partial curve]"
9,O=C(COc1ccc(Br)cc1)Nc1ccc(C(=O)OC2CCCCC2)cc1,"35.5 µM [rising, single point]"
10,COc1cc(C2NC(=O)NC(C)=C2C(=O)Nc2cccc(C)c2C)cc(OC)c1OC (stereo not drawn),"1.58 µM [falling, full curve]"
11,CCCCOc1nc2ccccc2nc1C(C#N)C(=O)NC1CCCCC1 (stereo not drawn),"2.82 µM [falling, partial curve, poor fit]"
12,O=C1c2ccccc2C(=O)c2c1ccc(C(=O)N1CCCCC1)c2NCCO,"7.94 µM [falling, partial curve]"
13,CC#CCOC(=O)c1c(C)nc2sc3c(c2c1N)CC[C@@H](O)C3,"31.6 µM [rising, single point]"
14,CCOc1cccc(C2c3c(oc4ccc(F)cc4c3=O)C(=O)N2CCOC)c1 (stereo not drawn),"5.62 µM [falling, single point]"
15,COCCn1c(-c2ccc(-c3ccccc3Cl)o2)nc2c1c(=O)[nH]c(=O)n2CC(C)C,"3.98 µM [rising, full curve]"
16,COCC(=O)Nc1c(C(=O)Nc2cccc(OC)c2)oc2ccccc12,"31.6 µM [falling, single point]"
17,COc1ccccc1OCCCCNCCO,"0.0141 µM [rising, full curve, poor fit]"
18,O=C(NCc1ccc(Cl)cc1)c1cc2c(nc3sccn32)s1,"25.1 µM [rising, single point]"
19,CCCOc1ccccc1C1CC(=O)NC2=C1C(=O)CCC2 (stereo not drawn),"2.51 µM [falling, full curve, poor fit]"
20,O=C(O)c1ccc(OC2CSC2)cc1,"0.0501 µM [falling, partial curve, poor fit]"
21,CC(=O)c1c(C)nn(C(C)CC(=O)O)c1C (stereo not drawn),"0.1 µM [falling, single point]"
22,CC(C)C(NS(=O)(=O)c1cccs1)C(=O)NCc1ccc2c(c1)OCO2 (stereo not drawn),"35.5 µM [rising, single point]"
